Laboratory results: paper PMC5620150
Results are given in words; binding and its absence hold for the method and conditions named. Binding seen in cells or lysates may run through a third protein. Some entries that bind do so weakly or less than the wild type.

The chains behind the UniProt entries cited, without tags or fusion partners.
UniProt Q92769: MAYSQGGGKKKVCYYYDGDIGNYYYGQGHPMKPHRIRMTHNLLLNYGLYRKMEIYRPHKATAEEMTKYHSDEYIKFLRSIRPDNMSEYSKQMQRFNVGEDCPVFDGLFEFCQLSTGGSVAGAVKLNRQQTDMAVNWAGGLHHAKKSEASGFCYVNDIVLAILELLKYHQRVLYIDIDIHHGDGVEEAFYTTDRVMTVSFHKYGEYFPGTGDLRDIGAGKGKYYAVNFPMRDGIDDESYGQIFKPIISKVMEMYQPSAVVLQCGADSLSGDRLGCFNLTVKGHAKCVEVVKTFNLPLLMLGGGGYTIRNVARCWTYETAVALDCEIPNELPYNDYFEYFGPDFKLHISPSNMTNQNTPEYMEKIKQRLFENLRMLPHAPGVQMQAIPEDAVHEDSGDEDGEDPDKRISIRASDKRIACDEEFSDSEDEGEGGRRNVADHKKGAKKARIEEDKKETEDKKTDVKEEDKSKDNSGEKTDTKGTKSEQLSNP

Molecular target: T1, DAB2IP (human (endogenous in 786O)) (UniProt Q5VWQ8)
T1 sequence: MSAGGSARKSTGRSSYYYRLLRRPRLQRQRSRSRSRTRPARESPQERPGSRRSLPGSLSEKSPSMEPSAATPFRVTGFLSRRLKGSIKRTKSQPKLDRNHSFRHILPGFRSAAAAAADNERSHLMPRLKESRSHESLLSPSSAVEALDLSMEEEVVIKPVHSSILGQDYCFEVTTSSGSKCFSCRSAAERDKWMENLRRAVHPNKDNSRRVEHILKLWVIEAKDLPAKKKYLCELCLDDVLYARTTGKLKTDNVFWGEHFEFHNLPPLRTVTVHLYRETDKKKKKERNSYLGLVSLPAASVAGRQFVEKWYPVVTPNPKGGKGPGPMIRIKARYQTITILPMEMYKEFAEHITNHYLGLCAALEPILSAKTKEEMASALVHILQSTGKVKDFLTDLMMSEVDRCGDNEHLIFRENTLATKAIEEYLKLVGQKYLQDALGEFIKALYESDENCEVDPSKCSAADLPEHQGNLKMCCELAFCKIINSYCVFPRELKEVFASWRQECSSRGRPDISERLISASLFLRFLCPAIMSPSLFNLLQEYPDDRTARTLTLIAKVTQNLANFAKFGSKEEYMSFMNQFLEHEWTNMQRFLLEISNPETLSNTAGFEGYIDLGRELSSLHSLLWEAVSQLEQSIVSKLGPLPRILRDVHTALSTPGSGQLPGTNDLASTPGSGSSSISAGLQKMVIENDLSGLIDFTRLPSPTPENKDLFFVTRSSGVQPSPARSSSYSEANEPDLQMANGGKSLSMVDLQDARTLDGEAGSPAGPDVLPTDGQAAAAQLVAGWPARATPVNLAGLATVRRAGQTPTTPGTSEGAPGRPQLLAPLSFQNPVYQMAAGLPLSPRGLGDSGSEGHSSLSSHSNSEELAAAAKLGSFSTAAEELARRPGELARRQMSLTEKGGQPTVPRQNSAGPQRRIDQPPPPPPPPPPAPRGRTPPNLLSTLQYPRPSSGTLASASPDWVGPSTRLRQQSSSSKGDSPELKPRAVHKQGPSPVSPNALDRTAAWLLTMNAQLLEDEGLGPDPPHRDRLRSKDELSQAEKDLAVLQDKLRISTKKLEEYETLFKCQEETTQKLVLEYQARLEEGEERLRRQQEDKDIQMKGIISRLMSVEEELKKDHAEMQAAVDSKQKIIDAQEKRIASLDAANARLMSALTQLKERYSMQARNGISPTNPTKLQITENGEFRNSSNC
Test: co-IP; nuclear proteins extracted from wild type 786O cells; endogenous proteins; which antibody precipitated is not told

binding: binds
Substance: histone deacetylase (HDAC2) (from UniProt Q92769 1-488) (enzyme)
